Where a SMILES comes first, the peptide text is derived from it.
Assay: Metabolomics of fetal brain at E14.5
Type: in vivo, C57Bl/6J mice
Conditions: metabolite level in E14.5 fetal brain; for fold of change ABX/SPF: ANOVA contrast ABX/SPF; for fold of change GF/ABX: ANOVA contrast GF/ABX; for fold of change GF/SPF: ANOVA contrast GF/SPF; for fold of change GF/Sp: ANOVA contrast GF/Sp; for fold of change Sp/ABX: ANOVA contrast Sp/ABX; for fold of change Sp/SPF: ANOVA contrast Sp/SPF

SMILES	fold of change ABX/SPF	fold of change GF/ABX	fold of change GF/SPF	fold of change GF/Sp	fold of change Sp/ABX	fold of change Sp/SPF
C[C@H](NC(=O)CC[C@H](N)C(=O)O)C(=O)O [compound 465]	0.81	0.78	0.63	1.32	0.59	0.48
N[C@@H](CCC(=O)N[C@@H](CCC(=O)O)C(=O)O)C(=O)O [compound 467]	0.77	0.73	0.56	0.94	0.78	0.60
NC(=O)CC[C@H](NC(=O)CC[C@H](N)C(=O)O)C(=O)O [compound 468]	0.78	0.76	0.59	0.88	0.86	0.67
N[C@@H](CCC(=O)NCC(=O)O)C(=O)O [compound 469]	0.79	0.84	0.66	1.25	0.67	0.53
CC[C@H](C)[C@H](NC(=O)CC[C@H](N)C(=O)O)C(=O)O [compound 471]	0.89	0.84	0.75	0.83	1.01	0.91
CC(C)C[C@H](NC(=O)CC[C@H](N)C(=O)O)C(=O)O [compound 472]	0.81	1.04	0.84	0.97	1.07	0.86
NCCCC[C@H](NC(=O)CC[C@H](N)C(=O)O)C(=O)O [compound 473]	0.79	1.40	1.11	1.18	1.19	0.94
N[C@@H](CCCCNC(=O)CC[C@H](N)C(=O)O)C(=O)O [compound 474]	0.66	1.14	0.75	0.97	1.18	0.78
CSCC[C@H](NC(=O)CC[C@H](N)C(=O)O)C(=O)O [compound 475]	0.82	0.72	0.60	0.98	0.74	0.61
N[C@@H](CCC(=O)N[C@@H](Cc1ccccc1)C(=O)O)C(=O)O [compound 476]	0.81	1.06	0.86	0.85	1.25	1.01
C[C@@H](O)[C@H](NC(=O)CC[C@H](N)C(=O)O)C(=O)O [compound 477]	0.74	1.04	0.77	1.04	1.00	0.74
N[C@@H](CCC(=O)N[C@@H](Cc1c[nH]c2ccccc12)C(=O)O)C(=O)O [compound 478]	0.73	0.80	0.58	1.03	0.77	0.57
N[C@@H](CCC(=O)N[C@@H](Cc1ccc(O)cc1)C(=O)O)C(=O)O [compound 479]	0.66	0.95	0.63	0.72	1.33	0.87
CC(C)[C@H](NC(=O)CC[C@H](N)C(=O)O)C(=O)O [compound 480]	0.88	0.97	0.86	0.96	1.02	0.90
O=C(O)CNC(=O)[C@@H]1CCCN1 [compound 756] (H-Pro-Gly-OH)	0.74	1.09	0.81	0.90	1.21	0.90
O=C(O)CNC(=O)Cc1ccccc1 [compound 929]	0.45	1.00	0.45	0.56	1.79	0.80
OC[C@H]1OC[C@H](O)[C@@H](O)[C@@H]1O [compound 955]	0.80	2.54	2.04	3.85	0.66	0.53
OC[C@H]1OC(O)[C@H](O)[C@@H](O)[C@@H]1O (stereo partly drawn) [compound 958]	0.58	5.42	3.16	4.51	1.20	0.70
O=C[C@H](O)[C@@H](O)[C@H](O)[C@H](O)COP(=O)(O)O [compound 959]	0.55	1.34	0.74	0.95	1.41	0.77
O=C(CO)COP(=O)(O)O [compound 967]	0.70	0.99	0.69	0.93	1.07	0.74
O=C(O)C(O)COP(=O)(O)O (stereo not drawn) [compound 972]	0.85	1.26	1.07	1.08	1.17	0.99
C=C(OP(=O)(O)O)C(=O)O [compound 973]	0.87	1.32	1.14	1.15	1.15	0.99
CC(=O)C(=O)O [compound 974]	0.76	1.15	0.87	1.06	1.08	0.82
CC(O)C(=O)O (stereo not drawn) [compound 975]	0.73	1.07	0.78	1.02	1.05	0.77
O=C(O)C(O)CO (stereo not drawn) [compound 978]	0.61	1.87	1.14	1.03	1.81	1.10
